# Experimental data: US4076659A, “L-Val^10 -somatostatin and intermediates thereto” (Eli Lilly and Company, priority 1976, dated 1978)
# Not every detail of the peptide structures is certain; ends, links or a residue may be inferred.
# Tests used:
# [1] = test system: secretion of growth hormone (GH); conditions: isolated from ovine hypothalamic extracts; cited from earlier work
# [2] = test system: release of growth hormone; assay: Inhibition of growth hormone release in sodium pentobarbitol-stimulated rats (modified Brazeau method); format: in vivo, mature male Spraque-Dawley rats; conditions: subcutaneously, sodium pentobarbitol-stimulated GH secretion, vs saline control group
# Experimental: The product from Example 4 was tested for its activity in inhibiting the release of growth hormone. The procedure which was employed is carried out using mature male Spraque-Dawley rats (Laboratory Supply Company, Indianapolis, Indiana). The test is a modification of the method of P. Brazeau, W. Vale, and R. Guilleman, Endocrinology, 94 184 (1974). In this assay, five groups of eight rats each were employed. First, sodium pentobarbitol was administered to all 40 rats to stimulate growth hormone secretion. One of the groups of eight rats is the control group and received only saline. Two of the groups received somatostatin, one at 2 μg./rat, subcutaneously, and the other at 50 μg./rat, subcutaneously. The other two groups received L-Val^10 -somatostatin, one at 2 μg./rat, subcutaneously and the other at 50 μg./rat, subcutaneously. The degree of inhibition of serum growth hormone concentration then was determined with respect to the control group, and the relative activities of L-Val^10 -somatostatin and somatostatin itself were compared.
structure (smiles),measurement,setting,value
"C[C@H](N)C(=O)NCC(=O)N[C@H]1CSSC[C@@H](C(=O)O)NC(=O)[C@H](CO)NC(=O)[C@H]([C@@H](C)O)NC(=O)[C@H](Cc2ccccc2)NC(=O)[C@H]([C@@H](C)O)NC(=O)[C@H](CCCCN)NC(=O)[C@H](Cc2c[nH]c3ccccc23)NC(=O)[C@H](Cc2ccccc2)NC(=O)[C@H](Cc2ccccc2)NC(=O)[C@H](CC(N)=O)NC(=O)[C@H](CCCCN)NC1=O [somatostatin, Somatostatin]",activity in inhibiting the secretion of growth hormone (GH),[1],active
same,diminished serum growth hormone concentration over control,[2]; 2 μg./rat,no effect whatever
same,diminished serum growth hormone concentration over control (inhibition),[2]; 50 μg./rat,91%
